Measurements from the supplement of paper PMC4604168 (melanoma cell lines).
Some of the results follow. Repeats are few or missing, and single values can be far off.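 Cells were imaged in 1,536-well plates, and nuclei stained with an antibody against cleaved PARP were counted against all DNA-stained nuclei to give the apoptosis fraction. Screening doses were chosen to leave most cells alive, and resting and induced cleaved-PARP levels differ strongly between cell lines.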

How the values were obtained:
Experiment in all cases: cleaved PARP positive nuclei fraction relative to DMSO control; melanoma cells; higher = more apoptosis
Conditions in all cases: library dose: low library concentration; 72 h
MZ2-MEL = tested on: MZ2-MEL
MeWo = tested on: MeWo
RPMI7951 = tested on: RPMI7951
RVH-421 = tested on: RVH-421
SkMel28 = tested on: SkMel28
SkMel30 = tested on: SkMel30
SkMel5 = tested on: SkMel5
UACC257 = tested on: UACC257
UACC62 = tested on: UACC62
WM115 = tested on: WM115
WM1716 = tested on: WM1716
WM1745 = tested on: WM1745
WM3526 = tested on: WM3526
WM3619 = tested on: WM3619
WM451Lu = tested on: WM451Lu

| Structure (SMILES) | cleaved PARP positive nuclei fraction (MZ2-MEL) [%] | cleaved PARP positive nuclei fraction (MeWo) [%] | cleaved PARP positive nuclei fraction (RPMI7951) [%] | cleaved PARP positive nuclei fraction (RVH-421) [%] | cleaved PARP positive nuclei fraction (SkMel28) [%] | cleaved PARP positive nuclei fraction (SkMel30) [%] | cleaved PARP positive nuclei fraction (SkMel5) [%] | cleaved PARP positive nuclei fraction (UACC257) [%] | cleaved PARP positive nuclei fraction (UACC62) [%] | cleaved PARP positive nuclei fraction (WM115) [%] | cleaved PARP positive nuclei fraction (WM1716) [%] | cleaved PARP positive nuclei fraction (WM1745) [%] | cleaved PARP positive nuclei fraction (WM3526) [%] | cleaved PARP positive nuclei fraction (WM3619) [%] | cleaved PARP positive nuclei fraction (WM451Lu) [%] |
| --- | --- | --- | --- | --- | --- | --- | --- | --- | --- | --- | --- | --- | --- | --- | --- |
| CN(NC(=O)CC(=O)NN(C)C(=S)c1ccccc1)C(=S)c1ccccc1 + CCCCCCCCCCCC1=C(O)C(=O)C=C(O)C1=O [Embelin] (first compound 0.006 µM, partner dose 1.2 µM) | 156 | 24.4 | 83.1 | 106 | 30.4 | 89.5 | 112 | 118 | 50.6 | 81.4 | 101 | 197 | 146 | 102 | 39.8 |
| O=C(O)c1ccc(-c2c[nH]c3ncc(-c4ccccc4)cc23)cc1C1CCCC1 + Cc1cc([N+](=O)[O-])ccc1NS(=O)(=O)c1cc(Cl)ccc1Cl [FH535] (first compound 0.16 µM, partner dose 1 µM) | 96.4 | 174 | 76.6 | 92.6 | 138 | 101 | 63.4 | 128 | 131 | 175 | 179 | 114 | 91.8 | 325 | 207 |
| COc1cc2ncnc(Nc3ccc(Oc4ccccc4)cc3)c2cc1OC + COc1cc(N2CCC(N3CCN(C)CC3)CC2)ccc1Nc1ncc(Cl)c(Nc2ccccc2S(=O)(=O)C(C)C)n1 [NVP-TAE684] (first compound 2 µM, partner dose 0.08 µM) | 90 | 95.5 | 72.7 | 85.2 | 161 | 53.9 | 32.6 | 112 | 50.9 | 108 | 57.3 | 131 | 122 | 97.3 | 110 |
| COc1ccc2c(c1)CCC1C2CCC2(C)C(NCCCCCCN3C(=O)C=CC3=O)CCC12 (stereo not given) + Oc1nc(-c2ccc(C(F)(F)F)cc2)nc2c1CSCC2 [XAV939] (first compound 0.4 µM, partner dose 2 µM) | 61.8 | 60.9 | 182 | 43.2 | 163 | 98.9 | 64.2 | 110 | 80.9 | 73.2 | 329 | 109 | 32.7 | 91.8 | 144 |
| O=C(Nc1ccccc1)c1cc([N+](=O)[O-])ccc1Cl + O=C(O)C(=O)Nc1sc2c(c1C(=O)O)CCNC2 [TCS401] (first compound 2 µM, partner dose 1.66667 µM) | 184 | 54.6 | 186 | 123 | 192 | 18.9 | 101 | 141 | 86.8 | 34.3 | 57.7 | 111 | 141 | 87.6 | 44 |
| COc1ccc(COc2ccc(Cc3cnc(N)nc3N)cc2OC)cc1 + O=C1NC(=O)/C(=C/c2ccc(-c3ccc(F)cc3O)o2)S1 [AS252424] (first compound 1 µM, partner dose 1 µM) | 79.7 | 110 | 147 | 68.2 | 52 | 33.1 | 104 | 116 | 69.7 | 176 | 145 | 100 | 55.9 | 88.3 | 66.5 |
| COc1ccc2c(c1)CCC1C2CCC2(C)C(NCCCCCCN3C(=O)C=CC3=O)CCC12 (stereo not given) + O=S(=O)(c1ccccc1)N(CC(F)(F)F)c1ccc(C(O)(C(F)(F)F)C(F)(F)F)cc1 [T0901317] (first compound 0.4 µM, partner dose 1.4 µM) | 230 | 51.5 | 105 | 42.4 | 124 | 26.9 | 90.9 | 98.2 | 67.7 | 50.1 | 187 | 598 | 34.2 | 136 | 74.6 |
| O=C(O)c1ccc(-c2c[nH]c3ncc(-c4ccccc4)cc23)cc1C1CCCC1 + N#Cc1c(O)c2c(-c3ccc(-c4ccccc4O)cc3)csc2[nH]c1=O [A769662] (first compound 0.16 µM, partner dose 2 µM) | 129 | 36.9 | 45.5 | 56 | 151 | 97.6 | 49.1 | 134 | 124 | 157 | 115 | 97.9 | 74.5 | 81.3 | 406 |
| CCN(CC)CCCCNc1ncc2cc(-c3cc(OC)cc(OC)c3)c(NC(=O)NC(C)(C)C)nc2n1 + c1cc(-c2cnn3cc(-c4ccc(OCCN5CCCCC5)cc4)cnc23)ccn1 [Dorsomorphin] (first compound 0.1 µM, partner dose 0.4 µM) | 128 | 55.6 | 116 | 70.8 | 131 | 115 | 51.5 | 127 | 74.5 | 50.8 | 83 | 234 | 208 | 82.8 | 64.5 |
| O=C(Nc1ccccc1)c1cc([N+](=O)[O-])ccc1Cl + Oc1nc(-c2ccc(C(F)(F)F)cc2)nc2c1CSCC2 [XAV939] (first compound 2 µM, partner dose 2 µM) | 102 | 126 | 123 | 93.8 | 103 | 245 | 161 | 67.1 | 41.9 | 46.8 | 163 | 119 | 29.5 | 92.5 | 126 |
| COC(=O)c1sccc1S(=O)(=O)Nc1ccc(Nc2ccccc2)cc1OC + COc1ccc(COc2ccc(Cc3cnc(N)nc3N)cc2OC)cc1 [GW2580] (first compound 1 µM, partner dose 1 µM) | 108 | 216 | 83.3 | 86.4 | 49.2 | 19.2 | 136 | 97.7 | 27 | 207 | 173 | 90.7 | 63.9 | 84.3 | 162 |
| c1cc(-c2cnn3cc(-c4ccc(OCCN5CCCCC5)cc4)cnc23)ccn1 [Dorsomorphin] + CC(C)CCN1c2nc(Nc3cc(F)c(O)c(F)c3)ncc2N(C)C(=O)C1C [BID1870] (first compound 0.4 µM, partner dose 0.2 µM) | 121 | 120 | 77.2 | 50.2 | 28.8 | 133 | 55.3 | 95.1 | 79.3 | 101 | 132 | 102 | 76.5 | 596 | 124 |
| CN(NC(=O)CC(=O)NN(C)C(=S)c1ccccc1)C(=S)c1ccccc1 + COc1ccc2c(c1)CCC1C2CCC2(C)C(NCCCCCCN3C(=O)C=CC3=O)CCC12 [U73122] (first compound 0.006 µM, partner dose 0.4 µM) | 122 | 39 | 103 | 101 | 154 | 113 | 35.4 | 80.7 | 30.2 | 92.6 | 142 | 88.9 | 135 | 74.5 | 48.2 |
| O=S(=O)(c1ccccc1)N(CC(F)(F)F)c1ccc(C(O)(C(F)(F)F)C(F)(F)F)cc1 + c1cc(-c2cnn3cc(-c4ccc(OCCN5CCCCC5)cc4)cnc23)ccn1 [Dorsomorphin] (first compound 1.4 µM, partner dose 0.4 µM) | 77.1 | 32.6 | 244 | 89.4 | 273 | 96.6 | 34.6 | 141 | 163 | 43.2 | 141 | 116 | 73.8 | 68 | 88.6 |
| NCC(=O)Nc1ccc(-n2nc(C(F)(F)F)cc2-c2ccc3c(ccc4ccccc43)c2)cc1 + COC(=O)c1sccc1S(=O)(=O)Nc1ccc(Nc2ccccc2)cc1OC [GSK0660] (first compound 1 µM, partner dose 1 µM) | 121 | 295 | 42.3 | 51.1 | 139 | 80.4 | 152 | 47.8 | 60.4 | 128 | 78.6 | 101 | 78.9 | 82.6 | 98.3 |
| O=C(Nc1ccccc1)c1cc([N+](=O)[O-])ccc1Cl + CC(C)CCN1c2nc(Nc3cc(F)c(O)c(F)c3)ncc2N(C)C(=O)C1C [BID1870] (first compound 2 µM, partner dose 0.2 µM) | 202 | 65.5 | 66.2 | 45.6 | 264 | 34.5 | 95.7 | 240 | 122 | 113 | 87.4 | 110 | 100 | 155 | 75.5 |
| O=C(O)C(=O)Nc1sc2c(c1C(=O)O)CCNC2 + O=c1cc(-c2cccc3c2Sc2ccccc2S3)oc(N2CCOCC2)c1 [KU55933] (first compound 1.66667 µM, partner dose 1 µM) | 113 | 105 | 77.5 | 117 | 140 | 24.8 | 36.9 | 246 | 631 | 138 | 70.9 | 119 | 133 | 74.4 | 381 |
| CCc1ccc(CCOc2ccc(CC3SC(=O)NC3=O)cc2)nc1 (stereo not given) [pioglitazone] + Oc1nc(-c2ccc(C(F)(F)F)cc2)nc2c1CSCC2 [XAV939] (first compound 2 µM, partner dose 2 µM) | 29.4 | 54.8 | 167 | 46.5 | 83.7 | 155 | 35.1 | 97.5 | 37.6 | 117 | 163 | 137 | 143 | 89.9 | 45.7 |
| O=C(O)c1ccc(-c2c[nH]c3ncc(-c4ccccc4)cc23)cc1C1CCCC1 + COc1ccc(-c2ccc3c(N4CCOCC4)nc(N4C[C@@H](C)O[C@@H](C)C4)nc3n2)cc1CO [KU0063794] (first compound 0.16 µM, partner dose 0.02 µM) | 124 | 125 | 47.5 | 112 | 155 | 94.4 | 76.3 | 256 | 58.9 | 56.2 | 77.9 | 102 | 73.9 | 86.1 | 46.4 |

Single records, from the list above. Order of values: cleaved PARP positive nuclei fraction (MZ2-MEL) [%]	cleaved PARP positive nuclei fraction (MeWo) [%]	cleaved PARP positive nuclei fraction (RPMI7951) [%]	cleaved PARP positive nuclei fraction (RVH-421) [%]	cleaved PARP positive nuclei fraction (SkMel28) [%]	cleaved PARP positive nuclei fraction (SkMel30) [%]	cleaved PARP positive nuclei fraction (SkMel5) [%]	cleaved PARP positive nuclei fraction (UACC257) [%]	cleaved PARP positive nuclei fraction (UACC62) [%]	cleaved PARP positive nuclei fraction (WM115) [%]	cleaved PARP positive nuclei fraction (WM1716) [%]	cleaved PARP positive nuclei fraction (WM1745) [%]	cleaved PARP positive nuclei fraction (WM3526) [%]	cleaved PARP positive nuclei fraction (WM3619) [%]	cleaved PARP positive nuclei fraction (WM451Lu) [%]
COC(=O)c1sccc1S(=O)(=O)Nc1ccc(Nc2ccccc2)cc1OC + COc1ccc(COc2ccc(Cc3cnc(N)nc3N)cc2OC)cc1 [GW2580] (first compound 1 µM, partner dose 1 µM) reads 108	216	83.3	86.4	49.2	19.2	136	97.7	27	207	173	90.7	63.9	84.3	162
O=C(Nc1ccccc1)c1cc([N+](=O)[O-])ccc1Cl + Oc1nc(-c2ccc(C(F)(F)F)cc2)nc2c1CSCC2 [XAV939] (first compound 2 µM, partner dose 2 µM) reads 102	126	123	93.8	103	245	161	67.1	41.9	46.8	163	119	29.5	92.5	126
